# Data published in the supplement of paper PMC8728848.
# The list shows a part of the results.
# B1: FBG2 (Homo sapiens), Q9NRD1 (protein)
# chain: MDAPHSKAALDSINELPENILLELFTHVPARQLLLNCRLVCSLWRDLIDLMTLWKRKCLREGFITKDWDQPVADWKIFYFLRSLHRNLLRNPCAEEDMFAWQIDFNGGDRWKVESLPGAHGTDFPDPKVKKYFVTSYEMCLKSQLVDLVAEGYWEELLDTFRPDIVVKDWFAARADCGCTYQLKVQLASADYFVLASFEPPPVTIQQWNNATWTEVSYTFSDYPRGVRYILFQHGGRDTQYWAGWYGPRVTNSSIVVSPKMTRNQASSEAQPGQKHGQEEAAQSPYRAVVQIFPPPVTIQQWNNATWTEVSYTFSDYPRGVRYILFQHGGRDTQYWAGWYGPRVTNSSIVVSPKMTRNQASSEAQPGQKHGQEEAAQSPYRAVVQI
# What was measured:
# Assay in all cases: glycan array binding signal (z-score within array); higher = stronger binding
# Settings in all cases: glycan notation: IUPAC condensed, linker removed
# [1] = target: Neu5Ac(a2-3)GalNAc(b1-4)GlcNAc
# Outline: (§1)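 The binding signal is a Z-score computed within each array. Data were drawn from 3228 arrays in the Consortium for Functional Glycomics database, restricted to those with a known protein sequence. Scores were averaged over arrays of the same protein sequence at different concentrations or buffers, and over linkers, and negative values can be taken as non-binding.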
# [2] = target: Neu5Ac(a2-3)[GalNAc(b1-4)]Gal(b1-4)Glc
# Outline: as §1
# [3] = target: Neu5Ac(a2-3)[GalNAc(b1-4)]Gal(b1-4)GlcNAc
# Outline: as §1
# [4] = target: Neu5Ac(a2-3)[Neu5Ac(a2-6)]GalNAc
# Outline: as §1
# [5] = target: Neu5Ac(a2-6)Gal(b1-4)GlcNAc
# Outline: as §1
# [6] = target: Neu5Ac(a2-6)Gal(b1-4)GlcNAc(b1-2)Man(a1-3)[Neu5Ac(a2-6)Gal(b1-4)GlcNAc(b1-2)Man(a1-6)]Man(b1-4)GlcNAc(b1-4)GlcNAc
# Outline: as §1
# [7] = target: Neu5Ac(a2-6)Gal(b1-4)GlcNAc(b1-3)Gal(b1-4)GlcNAc
# Outline: as §1
# [8] = target: Neu5Ac(a2-6)Gal(b1-4)GlcNAc(b1-3)Gal(b1-4)[Fuc(a1-3)]GlcNAc(b1-3)Gal(b1-4)[Fuc(a1-3)]GlcNAc
# Outline: as §1
# [9] = target: Neu5Ac(a2-6)Gal(b1-4)GlcNAc6S
# Outline: as §1
# Neu5Ac(a2-6)GalNAc = target: Neu5Ac(a2-6)GalNAc
# Outline: as §1
# [10] = target: Neu5Ac(a2-6)GalNAc(b1-4)GlcNAc
# Outline: as §1
# Neu5Ac(a2-8)Neu5Ac = target: Neu5Ac(a2-8)Neu5Ac
# Outline: as §1
# [11] = target: Neu5Ac(a2-8)Neu5Ac(a2-3)Gal(b1-4)Glc
# Outline: as §1
# [12] = target: Neu5Ac(a2-8)Neu5Ac(a2-3)[GalNAc(b1-4)]Gal(b1-4)Glc
# Outline: as §1
# [13] = target: Neu5Ac(a2-8)Neu5Ac(a2-8)Neu5Ac
# Outline: as §1
# [14] = target: Neu5Ac(a2-8)Neu5Ac(a2-8)Neu5Ac(a2-3)Gal(b1-4)Glc
# Outline: as §1
# [15] = target: Neu5Ac(a2-8)Neu5Ac(a2-8)Neu5Ac(a2-3)[GalNAc(b1-4)]Gal(b1-4)Glc
# Outline: as §1
# [16] = target: Neu5Ac(a2-8)Neu5Ac(a2-8)Neu5Ac(a2-8)Neu5Ac(a2-3)[GalNAc(b1-4)]Gal(b1-4)Glc
# Outline: as §1
# [17] = target: Neu5Ac9Ac(a2-6)Gal(b1-4)GlcNAc
# Outline: as §1
# [18] = target: Neu5Gc(a2-3)Gal(b1-3)GlcNAc
# Outline: as §1
# [19] = target: Neu5Gc(a2-3)Gal(b1-3)[Fuc(a1-4)]GlcNAc
# Outline: as §1
# Neu5Gc(a2-3)Gal(b1-4)Glc = target: Neu5Gc(a2-3)Gal(b1-4)Glc
# Outline: as §1
# [20] = target: Neu5Gc(a2-3)Gal(b1-4)GlcNAc
# Outline: as §1
# [21] = target: Neu5Gc(a2-3)Gal(b1-4)[Fuc(a1-4)]GlcNAc
# Outline: as §1
# [22] = target: Neu5Gc(a2-6)Gal(b1-4)GlcNAc
# Outline: as §1
# Neu5Gc(a2-6)GalNAc = target: Neu5Gc(a2-6)GalNAc
# Outline: as §1
binder,measurement,setting,value
B1,glycan array binding signal (z-score),[1],-0.657
same,glycan array binding signal (z-score),[2],-0.116
same,glycan array binding signal (z-score),[3],-0.719
same,glycan array binding signal (z-score),[4],-0.32
same,glycan array binding signal (z-score),[5],-0.736
same,glycan array binding signal (z-score),[6],0.023
same,glycan array binding signal (z-score),[7],-0.877
same,glycan array binding signal (z-score),[8],-0.738
same,glycan array binding signal (z-score),[9],0.481
same,glycan array binding signal (z-score),Neu5Ac(a2-6)GalNAc,-0.767
same,glycan array binding signal (z-score),[10],-0.582
same,glycan array binding signal (z-score),Neu5Ac(a2-8)Neu5Ac,-0.347
same,glycan array binding signal (z-score),[11],-0.28
same,glycan array binding signal (z-score),[12],-0.018
same,glycan array binding signal (z-score),[13],-0.196
same,glycan array binding signal (z-score),[14],-0.552
same,glycan array binding signal (z-score),[15],0.005
same,glycan array binding signal (z-score),[16],-0.367
same,glycan array binding signal (z-score),[17],0.535
same,glycan array binding signal (z-score),[18],-0.662
same,glycan array binding signal (z-score),[19],-0.831
same,glycan array binding signal (z-score),Neu5Gc(a2-3)Gal(b1-4)Glc,-0.742
same,glycan array binding signal (z-score),[20],-0.746
same,glycan array binding signal (z-score),[21],-0.731
same,glycan array binding signal (z-score),[22],-0.561
same,glycan array binding signal (z-score),Neu5Gc(a2-6)GalNAc,-0.848

# Rewritten with bars between the fields: part of the list above
binder | measurement | setting | value
B1 | glycan array binding signal (z-score) | [6] | 0.023
same | glycan array binding signal (z-score) | [19] | -0.831
